Experimental data published in patent publication US20250052985A1, “SYSTEM AND METHOD FOR QUANTITATIVE PHASE IMAGING FOR MULTI-PARAMETRIC SCREENING OF TUMOR THERAPY RESPONSE” (UNIVERSITY OF UTAH RESEARCH FOUNDATION, priority 2023, published 2025).
For at least one compound, name, drawing or mass did not settle the structure.

What was measured:
[1] = tested on: MDA-MB-231 cells; assay: Quantitative phase imaging (QPI) growth response, MDA-MB-231; format: cell-based
Description: (§1) In some embodiments, breast cancer cell lines are imaged, representing diverse clinical subtypes, summarized in Table 2 below, using a QPI microscope (FIG. 1A) based on differential phase contrast (DPC) microscopy and phase reconstruction via a QPI microscope system. DPC is used for image acquisition and phase reconstruction because DPC's flexible design may be customized for high throughput phase measurements. […] As illustrated in the embodiment of FIG. 1A, a QPI microscope system 100 conducts assays in a 96-well plate (e.g., a well-plate 105) with 6-point dose response curves and up to five therapies in triplicate including solvent controls, summarized in Table 4 below. As described below, in reference to FIG. 1A, a growth response of cells is measured noninvasively using QPI via a QPI microscope system 110 before being assayed using a CTG reader 115.
(§2) FIG. 1B illustrates a timeline plot 200 showing two plates (e.g., two, separate well-plates 105) set up in parallel to measure cell viability. With reference to FIG. 1B, two plates are set-up simultaneously for each experiment. A first plate 205 is incubated for 27 hours (h) post drug exposure prior to CTG analysis (3 h equilibration+24 h of imaging), which measures cell adenosine triphosphate (ATP) content as a surrogate for cell viability. A second plate 210 is imaged for 72 h after 3 h equilibration (e.g., 75 h) and followed by CTG. […] The imaging locations are imaged for 72 h, as shown by images 1700-1715 of FIG. 7.
(§3) In some embodiments, a dose-dependent change in growth, as indicated by a change in the rate of mass accumulation or loss, is a parameter that can be extracted from QPI dose-response data. […] Individual specific growth rate measurements are indicated by points in the distribution of the graph 1200 of FIG. 2A. Blue is indicative of the DMSO control and red is indicative of doxorubicin. The black outline is a kernel density function fit to the distribution of specific growth rates for each condition (e.g., *p<0.05, **p<0.01). In some embodiments, the average SGR of each condition is fit to a sigmoid dose-response curve using a Hill equation. For example, computed logistic fit parameters using a 4-parameter Hill model via the QPI microscope system 110 for all conditions are summarized in Tables 5-8 below. To determine if there is a response, as illustrated by FIG. 2B, the QPI microscope system 110 tests goodness of fit, adjusts for degrees of freedom using an F-test at significance p<0.01 by comparison to a flat line, as an indicator of no response. […]

[2] = tested on: BT-474 cells
Description: as §1, §2, §3

[3] = BT-474, 20 μM, normalized mass versus time

CC(=O)c1c(C)c2cnc(Nc3ccc(N4CCNCC4)cn3)nc2n(C2CCCC2)c1=O [Palbociclib]
growth rate and heterogeneity over time ([1]; MDA-MB-231, 0.4 μM): first decrease in growth rate with little change in heterogeneity relative to the control
growth rate and heterogeneity over time ([1]; MDA-MB-231, 2 μM): decrease in growth rate with little change in heterogeneity
growth rate and heterogeneity over time ([1]; MDA-MB-231, 20 μM): first decrease in growth rate before decreasing slightly in heterogeneity
growth rate and heterogeneity as concentration increases ([1]; MDA-MB-231, FIG. 22): decrease in growth rate and heterogencity simultaneously
growth rate and heterogeneity over time ([2]; BT-474, 2 μM): population heterogeneity is increased and growth rate decreases
DoR compared with docetaxel and vinblastine conditions ([2]; BT-474, 20 μM palbociclib vs 0.016 μM docetaxel, 20 μM vinblastine): largest DoR
time to response from the start of imaging [2, 3]: ≤ 5 h
time to response post-exposure [2, 3]: ≤ 8 h
